Consider 1 compound from PMC7380323 (ACS chemical neuroscience, 2020).

What all share (format): cell-based
In test [1] the test system is immortalized mouse microglia cells. Briefly: Automated patch clamp, GABA current response in immortalized mouse microglia. The settings on record: read-out: EC50 of GABA induced current.
Test [2] has as its system immortalized human microglia cells. Briefly: Automated patch clamp, GABA current response in immortalized human microglia. The settings on record: read-out: EC50 of GABA induced current.
Test [3] deals with HMC3 human microglia cells. The test is described as follows: cells. To be noted: HMC3, read-out: EC50 of GABA induced current.

For `NCCCC(=O)O` [GABA, γ-aminobutyric acid], the EC50 in test [1] amounted to 260 nM; in test [2], 1940 nM; in test [3] it was 270 nM.
